# Reference: patent US20240174765A1 (ACADEMIA SINICA, published 2024)
# The chains behind the UniProt entries cited, without tags or fusion partners.
# UniProt P06733: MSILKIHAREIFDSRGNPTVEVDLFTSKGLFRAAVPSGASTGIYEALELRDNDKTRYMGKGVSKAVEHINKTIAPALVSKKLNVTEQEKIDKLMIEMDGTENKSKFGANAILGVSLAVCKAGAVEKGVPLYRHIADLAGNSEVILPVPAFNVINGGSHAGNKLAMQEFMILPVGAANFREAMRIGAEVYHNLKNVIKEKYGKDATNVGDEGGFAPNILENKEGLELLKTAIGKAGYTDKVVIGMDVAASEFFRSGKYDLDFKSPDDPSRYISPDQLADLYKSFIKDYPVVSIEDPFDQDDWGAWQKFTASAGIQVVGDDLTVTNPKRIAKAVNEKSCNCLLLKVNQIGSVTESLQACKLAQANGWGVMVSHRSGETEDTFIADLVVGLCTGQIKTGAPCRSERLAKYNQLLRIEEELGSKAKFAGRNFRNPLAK
# Results are given in words; binding and its absence hold for the method and conditions named. Some entries that bind do so weakly or less than the wild type.
# Molecular target: FLAG-tagged ENO1 (UniProt P06733)
# Test: flow cytometry on CL1-0 cells transfected with AS2-ENO1-FLAG or empty vector
binder,measurement,value
"chimeric ENO1-22 (chENO1-22) (antibody, V domains shown, Variable domain of anti-ENO1 mAb-22 cloned into a human IgG Fc vector; also called chimeric ENO1 mAb; chimeric ENO1 antibody) VH: QVQLQQSGPEVVRPGVSVKISCKGSGYTFTDYAMHWVKQSHAKSLEWIGVISTYNGNTNYNQKFKGKATMTVDKSSSTAYMELARLTSEDSAIYYCARSPLRYWGQGTTLTVSS VL: QIVLSQSPAILSASPGEKVTMTCRASSSVSYMHWYQQKPGSSPKPWIYATSNLASGVPARFSGSGSGTSYSLTISRVEAEDAATYYCQQWSSNPLTFGAGTKLELK",binding,binds
